Taken from: PubChem BioAssay AID504764 (Drosophila RNAi Screening Center, 2011)

Test: 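Genome-wide screen for regulators of Notch-driven gene expression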 (primary screen)
System: Drosophila Kc167 cells
Reagents: long dsRNA against Drosophila genes
Duration: about 5 days (4 days dsRNA, then 24 h after transfection)
Conditions: transfection of constitutively active membrane-tethered Notch lacking the extracellular domain, read 24 h later
Detection: 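Light from a Notch-responsive E(spl)m3 luciferase reporter under active Notch, with control-promoter and no-Notch reporter wells to normalise; raw counts from paired wells a and b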
Direction: induced reporter light, run 1, well a and induced reporter light, run 1, well b: higher = more light from the Notch target reporter with active Notch; control promoter light, run 1, well a and control promoter light, run 1, well b: higher = more light from the viral control promoter (cell number, transfection, viability); uninduced reporter light, run 1, well a: higher = more light from the Notch target reporter without active Notch
Rule for the call: 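Hit if the duplicate-averaged log2 ratio of induced to control-promoter light gives a plate-wise z beyond ±2, or induced to uninduced beyond ±1.8; weak-control or discordant-duplicate wells dropped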
Meaning of the calls: active = modifier hit (raised or lowered Notch signal); inactive = not a hit
The screen tested about 22,000 reagents; below is an unselected part of those with a known target gene and a result. Over the whole deposit, 403 (1.9%) got an active call. 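Unnormalised raw counts per well; ratio z-scores behind the hit calls and whether each hit raises or lowers signal are not deposited.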 Entries without a mark were called inactive. Not given: the amount of reagent.

With knock-down of Tsf2 (Transferrin 2) [DRSC09751], the record shows induced reporter light, run 1, well a = 1.19e5; induced reporter light, run 1, well b = 92740; control promoter light, run 1, well a = 82060; control promoter light, run 1, well b = 43970; uninduced reporter light, run 1, well a = 9250.
CG15023 [DRSC08477] gave induced reporter light, run 1, well a = 2.27e5; induced reporter light, run 1, well b = 2.26e5; control promoter light, run 1, well a = 3.21e5; control promoter light, run 1, well b = 3.31e5; uninduced reporter light, run 1, well a = 12095.
For CG32148 [DRSC09338], the entry reads induced reporter light, run 1, well a = 2.13e5; induced reporter light, run 1, well b = 1.86e5; control promoter light, run 1, well a = 2.87e5; control promoter light, run 1, well b = 3.30e5; uninduced reporter light, run 1, well a = 23545.
With knock-down of Tsp42Ep (Tetraspanin 42Ep) [DRSC06871], the record shows induced reporter light, run 1, well a = 70800; induced reporter light, run 1, well b = 66090; control promoter light, run 1, well a = 62100; control promoter light, run 1, well b = 66420; uninduced reporter light, run 1, well a = 4250.
Silencing of H15 [DRSC03339] gave: induced reporter light, run 1, well a = 2.10e5 (active); induced reporter light, run 1, well b = 1.67e5; control promoter light, run 1, well a = 2.66e5; control promoter light, run 1, well b = 1.78e5; uninduced reporter light, run 1, well a = 9840.
sqz (squeeze) [DRSC16980] scored induced reporter light, run 1, well a = 1.50e5; induced reporter light, run 1, well b = 1.56e5; control promoter light, run 1, well a = 1.33e5; control promoter light, run 1, well b = 1.53e5; uninduced reporter light, run 1, well a = 12280.
CG33203 [DRSC14874] showed induced reporter light, run 1, well a = 39990; induced reporter light, run 1, well b = 47710; control promoter light, run 1, well a = 26835; control promoter light, run 1, well b = 25685; uninduced reporter light, run 1, well a = 7500.
Knock-down of CG33203 [DRSC14876] resulted in: induced reporter light, run 1, well a = 1.48e5; induced reporter light, run 1, well b = 1.31e5; control promoter light, run 1, well a = 2.25e5; control promoter light, run 1, well b = 1.75e5; uninduced reporter light, run 1, well a = 12400.
With knock-down of CG33203 [DRSC14877], the screen gave induced reporter light, run 1, well a = 1.51e5; induced reporter light, run 1, well b = 1.35e5; control promoter light, run 1, well a = 1.81e5; control promoter light, run 1, well b = 1.56e5; uninduced reporter light, run 1, well a = 10530.

Called active, of those listed so far:
H15 [DRSC03339] | induced reporter light, run 1, well a = 2.10e5 (active); induced reporter light, run 1, well b = 1.67e5; control promoter light, run 1, well a = 2.66e5; control promoter light, run 1, well b = 1.78e5; uninduced reporter light, run 1, well a = 9840

Additional results follow.
For CG10171 [DRSC09711] the deposit lists induced reporter light, run 1, well a = 1.16e5; induced reporter light, run 1, well b = 1.07e5; control promoter light, run 1, well a = 1.08e5; control promoter light, run 1, well b = 65970; uninduced reporter light, run 1, well a = 10550.
With knock-down of ttm3 (tiny tim 3) [DRSC03736], the record shows induced reporter light, run 1, well a = 44700; induced reporter light, run 1, well b = 23120; control promoter light, run 1, well a = 30310; control promoter light, run 1, well b = 44810; uninduced reporter light, run 1, well a = 2785.
For eIF5B (eukaryotic translation initiation factor 5B) [DRSC08429], the entry reads induced reporter light, run 1, well a = 1.26e5; induced reporter light, run 1, well b = 1.65e5; control promoter light, run 1, well a = 2.02e5; control promoter light, run 1, well b = 1.68e5; uninduced reporter light, run 1, well a = 6425.
eIF5B (eukaryotic translation initiation factor 5B) [DRSC08710] gave induced reporter light, run 1, well a = 89135; induced reporter light, run 1, well b = 87240; control promoter light, run 1, well a = 1.45e5; control promoter light, run 1, well b = 1.24e5; uninduced reporter light, run 1, well a = 5860.
After knock-down of myd (mayday) [DRSC14762] the results were induced reporter light, run 1, well a = 25040; induced reporter light, run 1, well b = 28635; control promoter light, run 1, well a = 20655; control promoter light, run 1, well b = 23715; uninduced reporter light, run 1, well a = 6938.
For myd (mayday) [DRSC15512] the deposit lists induced reporter light, run 1, well a = 1.81e5; induced reporter light, run 1, well b = 1.71e5; control promoter light, run 1, well a = 2.08e5; control promoter light, run 1, well b = 2.06e5; uninduced reporter light, run 1, well a = 13330.
erm (earmuff) [DRSC00700] scored induced reporter light, run 1, well a = 50450; induced reporter light, run 1, well b = 48480; control promoter light, run 1, well a = 43620; control promoter light, run 1, well b = 46535; uninduced reporter light, run 1, well a = 3320.
Depletion of ACXD (Adenylyl cyclase X D) [DRSC07843] gave: induced reporter light, run 1, well a = 82125; induced reporter light, run 1, well b = 78200; control promoter light, run 1, well a = 1.22e5; control promoter light, run 1, well b = 1.30e5; uninduced reporter light, run 1, well a = 6620.
Depletion of Or65a (Odorant receptor 65a) [DRSC08808] resulted in: induced reporter light, run 1, well a = 2.07e5 (active); induced reporter light, run 1, well b = 1.85e5; control promoter light, run 1, well a = 2.54e5; control promoter light, run 1, well b = 3.11e5; uninduced reporter light, run 1, well a = 13542.
